# Measurements published in PubChem BioAssay AID504444 (National Center for Advancing Translational Sciences (NCATS), 2011).
# The campaign covered roughly 360,000 compounds. About 7,500 (2.1%) were called active. The shares of active, inactive and inconclusive entries below differ from those in the screen. Calls follow the shape of the dose curve; as a rule, active = well fitted inhibition curve with a large enough effect; inconclusive = small, poorly fitted or top-dose-only effect, or effect the other way; inactive = flat fitted curve, though single readings scatter. Potencies beside an inconclusive call are fits to weak or partial responses and may not hold up.
# Test: Nrf2 qHTS screen for inhibitors; also: nearly all actives have a fitted effect of over 60% in size
# Conditions: A549 ARE-Fluc reporter, luciferase luminescence, 18-24 h; activity change, negative = inhibition: at 46 µM (top of the series)
# Outline: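 A549 ARE_Fluc cells (5000/well, 5% FBS OPTI-MEM) pre-incubated 2 h, then treated with compounds 18-24 h at 37C/5% CO2 in concentration-response. CellTiter-Fluor viability read first; BugLite luciferase luminescence after 15 min at room temperature gives Nrf2 activity.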
# % is scaled to controls: 0 for no effect and ±100 for the full control effect; potency is read from the fitted curve at half-maximal effect.
Structure (SMILES),Potency,"activity change, negative = inhibition"
Cc1ccccc1-c1nc(CN(Cc2c(C)nn(C)c2C)C2CC2)c(C)o1,"inconclusive: 29.1 µM [falling, single point]",–
CCCSc1nnc(N2C(=O)C(O)=C(C(=O)c3ccco3)C2c2ccccc2F)s1 (stereo not given),–,inactive: -13.5%
CCn1c(-c2ccco2)nc2ccccc21,–,inactive: 2.66%
Cc1ccc(C)c(S(=O)(=O)c2nnn3c2nc(NC(C)C)c2sccc23)c1,"inconclusive: 29.1 µM [falling, single point]",–
COc1ccc(C(=O)OCCN2CCN(C3=NS(=O)(=O)c4ccccc43)CC2)cc1OC,"inconclusive: 29.1 µM [falling, partial curve, poor fit]",–
CCc1ccccc1Nc1nn2c(=O)c3ccc(C(=O)NCc4ccccc4OC)cc3nc2s1,"inconclusive: 1.84 µM [falling, full curve]",–
c1ccc(CCc2nn3c(Cn4cnc5ccccc54)nnc3s2)cc1,"inconclusive: 6.51 µM [falling, full curve, poor fit]",–
CCOC(=O)c1c(C)[nH]c(C)c1S(=O)(=O)N1CCCC(C(=O)Nc2ccc(C)cn2)C1 (stereo not given),"inconclusive: 29.1 µM [activator, single point]",–
CCN(CC(=O)Nc1cc(S(=O)(=O)N2CCOCC2)ccc1Cl)Cc1ccccc1,"inconclusive: 29.1 µM [falling, single point]",–
CC(C)C(c1nnnn1C1CCCC1)N(C)C1CCCCC1 (stereo not given),–,inactive: 14.1%
COc1ccccc1Cn1cc(C(=O)c2ccc(C)cc2)c(=O)c2cc(C)ccc21,"inconclusive: 3.26 µM [activator, partial curve, poor fit]",–
CCN(c1ccccc1)c1ccc2cc(S(=O)(=O)N3CCCC3)ccc2n1,"inconclusive: 20.6 µM [activator, partial curve, poor fit]",–
Cc1ccc(C2=NN(C(=O)c3ccccc3F)C(c3ccccc3F)C2)cc1 (stereo not given),"inconclusive: 29.1 µM [falling, single point]",–
COC(=O)c1ccc(CNC(=O)CSc2nc3sc(C)c(C)c3c(=O)n2C)o1,"inconclusive: 23.1 µM [falling, partial curve, poor fit]",–
CC1CC(C)CN(C(=O)COC(=O)/C=C/c2ccco2)C1 (stereo not given),–,inactive: 0.109%
CCOc1ccc(S(=O)(=O)Nc2ccc3c(c2)OCO3)cc1,"inconclusive: 25.9 µM [falling, single point]",–
CCCc1cc(C(=O)N2CCCC(C(=O)c3cccc4ccccc34)C2)n(C)n1 (stereo not given),"inconclusive: 13 µM [falling, partial curve]",–
Cc1ccc(C(=O)NC(=S)Nc2cc(C(F)(F)F)ccc2Cl)cc1,"inconclusive: 29.1 µM [falling, single point]",–
COc1ccc(Cl)cc1NC(=O)c1cn(C2CCCCC2)c(=O)c2c1c1ccccc1n2C,"inconclusive: 29.1 µM [activator, single point]",–
O=C(O)c1cccc(Nc2ncnc3c2cnn3-c2ccccc2)c1,"inconclusive: 20.6 µM [activator, partial curve]",–
Cc1c(C(=O)N(Cc2ccc(N(C)C)cc2)CC2CCCO2)oc2ccc(Cl)cc12 (stereo not given),"inconclusive: 20.6 µM [falling, single point]",–
O=C(NCc1ccncc1)c1ccc(Cl)c(S(=O)(=O)N2CCOCC2)c1,"inconclusive: 9.2 µM [falling, partial curve]",–

# Pulled by structure from the entries so far, 3 records:
Structure (SMILES),Potency,"activity change, negative = inhibition"
CCN(c1ccccc1)c1ccc2cc(S(=O)(=O)N3CCCC3)ccc2n1,"inconclusive: 20.6 µM [activator, partial curve, poor fit]",–
Cc1ccccc1-c1nc(CN(Cc2c(C)nn(C)c2C)C2CC2)c(C)o1,"inconclusive: 29.1 µM [falling, single point]",–
COc1ccc(Cl)cc1NC(=O)c1cn(C2CCCCC2)c(=O)c2c1c1ccccc1n2C,"inconclusive: 29.1 µM [activator, single point]",–

# Later entries

Structure (SMILES),Potency,"activity change, negative = inhibition"
CCC(C)(C)NC(=O)/C=C/c1ccccc1[N+](=O)[O-],"inconclusive: 2.06 µM [falling, partial curve, poor fit]",–
CC(C)c1nc2oc3ccccc3c(=O)c2c(=O)n1-c1ccccc1,"inconclusive: 5.8 µM [activator, full curve, poor fit]",–
O=C(CSc1nc2ccccc2c(=O)n1-c1ccc(F)cc1F)Nc1ccc(N2CCOCC2)cc1,"inconclusive: 8.2 µM [falling, partial curve, poor fit]",–
CCCCCn1c(=O)[nH]c2cc(C(=O)NCCCN3CCCCC3)ccc2c1=O,–,inactive: 14.6%
Cc1ccc(SCCOCCN2CCOCC2)cc1,"inconclusive: 23.1 µM [activator, single point]",–
COc1ccc(C2Nc3ccccc3C(=O)N2Cc2ccccc2)cc1COc1cccc(Cl)c1 (stereo not given),–,inactive: -11.7%
Cc1ccc(S(=O)(=O)OCCC2=CC(=O)CCN2Cc2ccccc2)cc1,"inconclusive: 0.146 µM [activator, full curve, poor fit]",–
Cc1ccccc1NC(=S)N(CCc1c(C)[nH]c2ccc(F)cc12)Cc1cccnc1,"inconclusive: 18.4 µM [falling, partial curve, poor fit]",–
CCC(Oc1ccccc1F)C(=O)N1CCC(c2nc3ccccc3s2)CC1 (stereo not given),"inconclusive: 29.1 µM [falling, single point]",–
CCOc1cc(/C=C/C(=O)c2ccc(OC)c(CN3CCOCC3)c2)cc(Br)c1O,"inconclusive: 7.31 µM [activator, partial curve, poor fit]",–
COc1ccc(Cl)cc1NC(=O)C1CCCN(c2ncnc3onc(C)c23)C1 (stereo not given),"inconclusive: 18.4 µM [falling, single point]",–
Cc1nc2sc3c(c2c(=O)[nH]1)CCCC3,"inconclusive: 32.6 µM [falling, partial curve, poor fit]",–
COc1cccc(C(=O)n2cnnc2N)c1OC,–,inactive: 9.05%
CC(=O)N(CCS(=O)(=O)c1ccc(Cl)cc1)Cc1cccs1,–,inactive: 16.1%
COc1ccc(-c2cn3cc([N+](=O)[O-])ccc3n2)cc1OC,active: 3.66 µM,–
Cc1ccc(C(O)CCc2ccc(N)cc2)cc1 (stereo not given),"inconclusive: 8.2 µM [activator, partial curve, poor fit]",–
CCOc1ccccc1CNC(=O)c1c(C)oc2ncnc(N3CCOCC3)c12,"inconclusive: 4.11 µM [activator, partial curve, poor fit]",–
C/C(=N/Oc1nc(C)cc(C)n1)c1ccc(F)cc1,"inconclusive: 7.31 µM [activator, partial curve, poor fit]",–
CCOc1ccc(NC(=O)CSc2ccc(-c3sc(-c4ccccc4)nc3C)nn2)cc1,"inconclusive: 29.1 µM [activator, single point]",–
O=C(COc1ccc(Cl)cc1Cl)N1CCN(C(=O)c2ccco2)CC1,"inconclusive: 29.1 µM [activator, single point]",–
NC(=O)c1ccccc1NC(=O)CSc1nc2ccccc2c(=O)[nH]1,"inconclusive: 20.6 µM [falling, single point]",–
C[C@]12c3[nH]c4ccc(Cl)cc4c3CCN1C(=O)[C@@H](CC(=O)NCC13CC4CC(CC(C4)C1)C3)C[C@@H]2C(=O)N1CCOCC1,"inconclusive: 23.1 µM [falling, single point]",–

Structure (SMILES),Potency,"activity change, negative = inhibition"
S=C(NCc1ccncc1)Nc1cc(Cl)cc(Cl)c1,"inconclusive: 14.6 µM [falling, single point]",–
CN(C)S(=O)(=O)c1ccc(N2CCCC2)c(C(=O)NNC(=O)c2ccc(Br)cc2)c1,–,inactive: -24.7%
COc1ccc(C(=O)Nc2ccc3c(c2)C(=O)NC3=O)cc1,"inconclusive: 36.6 µM [falling, partial curve, poor fit]",–
CCCC(=O)N1CCN(c2ccc(NC(=O)c3cccs3)cc2Cl)CC1,–,inactive: -14.5%
Cc1ccc(-c2nc(C#N)c(NCCc3ccccn3)o2)cc1,"inconclusive: 14.6 µM [activator, partial curve, poor fit]",–
Cc1cccc(NC(=O)c2ccc3snnc3c2)c1C,–,inactive: 1.97%
CCC(C)(C)c1ccc(OCC(=O)N(C)C)c(C(C)(C)CC)c1,"inconclusive: 18.4 µM [falling, single point]",–
CSc1ccccc1NC(=O)CSc1nnc(COc2ccccc2)o1,"inconclusive: 11.6 µM [falling, partial curve, poor fit]",–
Cc1cc(NCCCn2ccnc2)n2nc(C)c(-c3ccc(Cl)cc3)c2n1,–,inactive: 7.43%
CCN1CCN(C(=O)C2CCCN(S(=O)(=O)c3cccc4nsnc34)C2)CC1 (stereo not given),"inconclusive: 29.1 µM [activator, single point]",–
Cc1ccc(NC(=O)CCS(=O)(=O)c2cc3c(cc2Cl)NC(=O)CO3)cc1,–,inactive: -13.1%
O/N=C/c1cn(-c2ccc(Cl)cc2)nn1,"inconclusive: 29.1 µM [activator, single point]",–
CC(C)C[C@@H](CN)NC(=O)c1nc[nH]c1C(=O)N[C@@H](C)C(=O)CNC[C@H](C)NC(=O)c1nc[nH]c1C(=O)N[C@@H](CC(=O)O)C(=O)O,–,inactive: 2.51%
O=[N+]([O-])c1ccc(SCCc2ccncc2)cc1,"inconclusive: 13 µM [falling, partial curve]",–
CC(C)[C@H](NC(=O)N1c2ccccc2NC(=O)[C@@H]1C(C)C)C(=O)N[C@H](Cc1ccccc1)C(=O)O,–,inactive: 4.44%
O=C(O)CCn1c2ccccc2c2nc3ccccc3nc21,"inconclusive: 0.0259 µM [falling, partial curve, poor fit]",–
CCCCCCCCC(=O)NC(NC(=S)N1CCOCC1)C(Cl)(Cl)Cl (stereo not given),"inconclusive: 29.1 µM [falling, single point]",–
CCn1c2ccccc2c2c3ncc4cccn4c3ccc21,"inconclusive: 23.1 µM [activator, single point]",–
Cc1ccc2oc(-c3ccc(C)c(NC(=O)c4ccc(N5CCC(C)CC5)c([N+](=O)[O-])c4)c3)nc2c1,"inconclusive: 16.4 µM [activator, partial curve, poor fit]",–
c1ccc(NN=C2c3ccccc3-c3ccccc32)cc1,"inconclusive: 8.2 µM [activator, partial curve, poor fit]",–
O=C(CCCN1C(=O)C(c2ccccc2)Oc2cccnc21)Nc1ccccc1C(F)(F)F (stereo not given),"inconclusive: 29.1 µM [activator, single point]",–
